In the supplement of paper PMC11732987, “Enantioselective OTUD7B fragment discovery through chemoproteomics screening and high-throughput optimisation” (Communications Chemistry, 2025):
The other results are listed elsewhere or left out. The data scatter; read single values as rough.

The chains behind the UniProt entries cited, without tags or fusion partners. Where a name states a change or a piece, a line headed by the entry shows the natural chain unless it says otherwise.
UniProt O43795: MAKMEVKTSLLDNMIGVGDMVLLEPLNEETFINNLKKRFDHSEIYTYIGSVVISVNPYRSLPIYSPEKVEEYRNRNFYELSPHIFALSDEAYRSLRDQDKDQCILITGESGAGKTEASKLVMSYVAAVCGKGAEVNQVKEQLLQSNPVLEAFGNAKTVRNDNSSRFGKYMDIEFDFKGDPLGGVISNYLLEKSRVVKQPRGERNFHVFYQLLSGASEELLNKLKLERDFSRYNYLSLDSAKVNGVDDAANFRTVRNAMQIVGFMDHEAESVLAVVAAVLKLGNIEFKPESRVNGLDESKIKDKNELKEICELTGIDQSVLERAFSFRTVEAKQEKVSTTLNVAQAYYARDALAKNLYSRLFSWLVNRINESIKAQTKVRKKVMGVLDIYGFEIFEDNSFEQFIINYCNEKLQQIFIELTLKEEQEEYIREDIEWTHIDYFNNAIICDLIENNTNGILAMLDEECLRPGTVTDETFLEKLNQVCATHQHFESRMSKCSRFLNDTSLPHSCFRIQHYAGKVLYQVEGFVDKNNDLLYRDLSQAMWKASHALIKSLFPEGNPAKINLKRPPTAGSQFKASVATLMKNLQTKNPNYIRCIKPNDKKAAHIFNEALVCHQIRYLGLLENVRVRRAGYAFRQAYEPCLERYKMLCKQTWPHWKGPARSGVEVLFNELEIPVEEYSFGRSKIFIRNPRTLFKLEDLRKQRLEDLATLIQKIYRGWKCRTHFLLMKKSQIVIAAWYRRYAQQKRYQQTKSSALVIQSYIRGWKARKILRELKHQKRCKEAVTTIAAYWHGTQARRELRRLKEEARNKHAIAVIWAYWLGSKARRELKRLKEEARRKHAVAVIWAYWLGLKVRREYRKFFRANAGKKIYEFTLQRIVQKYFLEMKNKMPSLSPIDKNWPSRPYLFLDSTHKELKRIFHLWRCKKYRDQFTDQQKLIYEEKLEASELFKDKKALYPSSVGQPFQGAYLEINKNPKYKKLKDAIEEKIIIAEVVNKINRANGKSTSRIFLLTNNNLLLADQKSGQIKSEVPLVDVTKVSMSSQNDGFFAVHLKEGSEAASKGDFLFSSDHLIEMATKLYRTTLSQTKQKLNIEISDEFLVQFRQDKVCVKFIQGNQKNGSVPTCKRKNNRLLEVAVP
UniProt Q9UM54: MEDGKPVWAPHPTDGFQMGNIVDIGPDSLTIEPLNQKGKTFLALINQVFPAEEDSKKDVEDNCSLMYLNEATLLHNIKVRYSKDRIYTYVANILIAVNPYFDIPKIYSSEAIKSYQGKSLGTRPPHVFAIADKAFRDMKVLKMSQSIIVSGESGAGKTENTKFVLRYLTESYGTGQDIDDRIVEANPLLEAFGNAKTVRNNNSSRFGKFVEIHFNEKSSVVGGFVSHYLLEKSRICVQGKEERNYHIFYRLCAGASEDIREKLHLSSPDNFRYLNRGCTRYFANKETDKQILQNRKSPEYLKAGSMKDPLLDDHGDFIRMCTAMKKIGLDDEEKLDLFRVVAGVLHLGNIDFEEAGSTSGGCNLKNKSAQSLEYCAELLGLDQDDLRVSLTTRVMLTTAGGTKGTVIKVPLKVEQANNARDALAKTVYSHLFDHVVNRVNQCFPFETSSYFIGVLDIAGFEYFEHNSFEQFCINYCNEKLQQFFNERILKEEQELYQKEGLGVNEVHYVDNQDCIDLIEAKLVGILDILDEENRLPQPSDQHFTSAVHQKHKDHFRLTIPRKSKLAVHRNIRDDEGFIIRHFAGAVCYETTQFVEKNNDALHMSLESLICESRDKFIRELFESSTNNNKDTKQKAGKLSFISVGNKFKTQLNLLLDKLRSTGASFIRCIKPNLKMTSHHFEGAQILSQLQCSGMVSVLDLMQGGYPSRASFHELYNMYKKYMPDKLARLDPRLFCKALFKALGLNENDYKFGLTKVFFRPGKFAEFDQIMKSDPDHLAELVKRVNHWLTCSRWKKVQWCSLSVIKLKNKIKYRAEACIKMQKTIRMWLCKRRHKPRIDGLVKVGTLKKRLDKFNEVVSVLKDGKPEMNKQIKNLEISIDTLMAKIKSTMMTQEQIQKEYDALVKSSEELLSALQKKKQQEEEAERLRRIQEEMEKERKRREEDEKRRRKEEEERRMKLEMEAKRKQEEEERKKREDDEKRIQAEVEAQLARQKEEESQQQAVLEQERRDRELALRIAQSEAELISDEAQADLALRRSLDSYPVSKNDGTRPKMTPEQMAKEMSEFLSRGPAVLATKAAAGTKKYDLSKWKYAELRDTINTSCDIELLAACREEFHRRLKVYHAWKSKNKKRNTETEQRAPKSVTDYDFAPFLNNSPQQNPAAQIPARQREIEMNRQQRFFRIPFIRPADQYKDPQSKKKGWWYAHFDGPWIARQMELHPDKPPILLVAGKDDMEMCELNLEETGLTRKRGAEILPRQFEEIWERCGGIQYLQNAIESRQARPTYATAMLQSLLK
UniProt Q9H4K7: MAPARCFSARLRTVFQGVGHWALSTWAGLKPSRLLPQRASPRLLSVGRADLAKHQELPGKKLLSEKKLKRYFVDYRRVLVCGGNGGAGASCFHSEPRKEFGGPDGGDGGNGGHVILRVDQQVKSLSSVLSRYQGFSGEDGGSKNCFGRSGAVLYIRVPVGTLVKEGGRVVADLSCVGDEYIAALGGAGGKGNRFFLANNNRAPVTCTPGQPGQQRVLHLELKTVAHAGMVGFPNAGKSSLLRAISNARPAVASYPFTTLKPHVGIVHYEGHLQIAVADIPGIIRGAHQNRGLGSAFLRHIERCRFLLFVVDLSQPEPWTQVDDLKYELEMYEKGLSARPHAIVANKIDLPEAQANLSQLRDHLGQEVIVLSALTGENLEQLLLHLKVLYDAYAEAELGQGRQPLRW
UniProt Q96RE7: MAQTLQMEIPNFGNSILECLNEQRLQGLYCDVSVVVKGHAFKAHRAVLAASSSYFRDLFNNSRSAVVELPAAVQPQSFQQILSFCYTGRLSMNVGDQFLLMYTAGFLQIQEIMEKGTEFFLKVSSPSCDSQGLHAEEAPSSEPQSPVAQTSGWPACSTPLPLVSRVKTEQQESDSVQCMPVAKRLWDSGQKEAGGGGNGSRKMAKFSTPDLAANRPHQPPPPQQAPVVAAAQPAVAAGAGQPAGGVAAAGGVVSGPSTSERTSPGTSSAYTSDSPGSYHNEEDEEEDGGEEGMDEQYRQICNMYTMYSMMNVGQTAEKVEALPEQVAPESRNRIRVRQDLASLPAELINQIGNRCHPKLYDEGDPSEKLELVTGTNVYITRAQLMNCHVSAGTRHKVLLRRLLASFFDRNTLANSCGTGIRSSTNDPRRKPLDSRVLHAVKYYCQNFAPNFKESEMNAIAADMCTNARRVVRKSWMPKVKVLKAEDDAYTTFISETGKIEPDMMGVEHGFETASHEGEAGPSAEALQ
UniProt Q2M296: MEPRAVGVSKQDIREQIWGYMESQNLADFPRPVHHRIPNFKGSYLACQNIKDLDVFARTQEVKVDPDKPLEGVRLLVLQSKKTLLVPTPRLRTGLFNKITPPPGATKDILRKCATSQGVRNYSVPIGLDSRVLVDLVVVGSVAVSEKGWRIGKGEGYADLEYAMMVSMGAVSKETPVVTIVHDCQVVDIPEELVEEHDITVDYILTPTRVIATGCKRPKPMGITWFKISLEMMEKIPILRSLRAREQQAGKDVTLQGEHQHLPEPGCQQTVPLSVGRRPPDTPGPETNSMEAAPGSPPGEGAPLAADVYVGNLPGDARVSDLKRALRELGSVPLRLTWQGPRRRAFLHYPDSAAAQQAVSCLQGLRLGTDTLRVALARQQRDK
UniProt Q96H55: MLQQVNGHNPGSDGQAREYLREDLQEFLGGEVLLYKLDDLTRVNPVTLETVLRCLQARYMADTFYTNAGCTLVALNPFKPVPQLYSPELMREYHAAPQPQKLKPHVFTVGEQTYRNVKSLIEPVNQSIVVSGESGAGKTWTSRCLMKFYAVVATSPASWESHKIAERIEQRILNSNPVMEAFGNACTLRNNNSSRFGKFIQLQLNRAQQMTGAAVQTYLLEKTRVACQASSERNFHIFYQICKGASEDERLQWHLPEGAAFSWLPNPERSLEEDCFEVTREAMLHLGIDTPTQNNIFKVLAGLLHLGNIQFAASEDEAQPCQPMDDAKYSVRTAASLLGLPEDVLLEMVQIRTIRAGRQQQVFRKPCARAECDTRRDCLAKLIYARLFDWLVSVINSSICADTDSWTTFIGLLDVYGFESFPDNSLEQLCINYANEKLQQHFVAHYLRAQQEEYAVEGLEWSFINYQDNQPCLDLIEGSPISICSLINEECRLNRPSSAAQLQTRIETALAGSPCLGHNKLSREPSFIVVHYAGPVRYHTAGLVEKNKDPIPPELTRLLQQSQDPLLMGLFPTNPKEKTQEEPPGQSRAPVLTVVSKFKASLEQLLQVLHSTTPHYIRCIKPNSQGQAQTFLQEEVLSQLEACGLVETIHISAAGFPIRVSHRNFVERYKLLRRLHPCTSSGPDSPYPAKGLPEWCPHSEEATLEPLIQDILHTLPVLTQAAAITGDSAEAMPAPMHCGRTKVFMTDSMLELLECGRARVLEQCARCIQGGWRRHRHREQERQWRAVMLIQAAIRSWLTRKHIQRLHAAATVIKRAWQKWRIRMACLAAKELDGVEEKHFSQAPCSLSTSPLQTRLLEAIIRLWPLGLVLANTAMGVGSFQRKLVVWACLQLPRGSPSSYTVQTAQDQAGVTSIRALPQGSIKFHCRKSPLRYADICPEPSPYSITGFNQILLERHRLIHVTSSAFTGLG

The targets below were run with ClCC(=O)N[C@H]1CCCc2ccccc12 (assay: log2 mean competition ratio of IA-DTB cysteine labelling (DMSO/compound) (log2 ratio); higher = stronger cysteine engagement by compound). Details: 200 µM; treatment time: 4 h; cell line lysate: HEK293T.
Description: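 IA-DTB competitive cysteine chemoproteomics in HEK293T RIPA lysate. Lysates were treated with compound 29 or 30 at 50 or 200 µM for 4 h, then IA-DTB (500 µM, 1 h), trypsin-digested, NeutrAvidin-enriched and analysed by diaPASEF. Competition ratio = intensity DMSO / intensity compound (n=4 treated, n=64 DMSO); binding: mean log2 CR ≥ 1 and p ≤ 0.05 plus QC filters. Target is the cysteine site.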
With MTBP C691 the “log2 mean competition ratio” value was -0.0904.
In the case of MYO1B C103 (UniProt O43795), the “log2 mean competition ratio” value is reported as -0.305.
MYO6 C610 (UniProt Q9UM54) was tested, and the “log2 mean competition ratio” value was -0.179.
For MTG2 C206 (UniProt Q9H4K7), the “log2 mean competition ratio” value was -0.345.
NACC1 C416 (UniProt Q96RE7) was tested, and the “log2 mean competition ratio” value was 0.161.
With NAMPT C39 the “log2 mean competition ratio” value was -0.0414.
MTARC2 C299 was tested, and the “log2 mean competition ratio” value was 0.0632.
With MRPL37 C153 (UniProt Q9BZE1) the “log2 mean competition ratio” value was -0.325.
With MTHFSD C113 (UniProt Q2M296) the “log2 mean competition ratio” value was 0.0754.
For MYO19 C678 (UniProt Q96H55), the “log2 mean competition ratio” value was -0.112.
